The values that follow come from PMC12408736.

This data set relates to Rap1 (Naumovozyma castellii). Briefly: EMSA. To be noted: labeled probe, no competitor; 10 mM Tris-HCl pH 7.5, 7 mM MgCl2, 8% glycerol; 10 fmol probe in 15 µl, ~0.6 µg Rap1 extract, 1.5 µg non-specific competitor (E. coli DNA, salmon sperm DNA, yeast tRNA); recombinant protein; label: 5'-32P (labeled probe), unlabeled as competitor.

Construct, isoform or probe ends are uncertain for at least one entry.

As for “GTCTGGGTGTCTGGGTGTC (double strand) [telomeric ds-probe (19 bp)]”, the binding result was “binds”.
